Values quoted from earlier work as cited in patent US4883661A, “Use of arginine as an lymphokine synergist” (priority 1987, dated 1989).

Settings: given prior to or concomitantly with amino acids, glycine or ammonia; rats; cited from earlier work

NCCC[C@H](N)C(=O)O [ornithine]
protection against toxic effects of hyperammonemia: share the "detoxifying" effects of arginine
